The campaign covered roughly 320,000 compounds. About 22,000 (6.9%) were called active. Inconclusive means that the source gave no clear call. Such entries were picked first, then a sample of the others. Calls come from the whole dose curve; as a rule, active = well fitted inhibition curve with a large enough effect; inconclusive = small, poorly fitted or top-dose-only effect, or another doubt; inactive = no such curve, though single readings can be large or run the other way. Potencies beside an inconclusive call are fits to weak or partial responses and may not hold up.
Assay: Primary qHTS for delayed death inhibitors of the malarial parasite plastid, 96 hour incubation
Settings: P. falciparum luciferase reporter growth; series mostly up to 28.7 µM; activity change, negative = inhibition: at the top concentration
Method in brief: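 96 h incubation, 37 C, 5% CO2, of luciferase-reporter P. falciparum-infected RBCs (2% hematocrit, 0.05% parasitemia final) with test compounds; endpoint luminescence.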
For `CCNC(=O)C1CCCN1C(=O)C(CCCN=C(N)N)NC(=O)C(CC(C)C)NC(=O)C(Cc1cn(Cc2ccccc2)cn1)NC(=O)C(Cc1ccc(O)cc1)NC(=O)C(CO)NC(=O)C(Cc1c[nH]c2ccccc12)NC(=O)C(Cc1cnc[nH]1)NC(=O)C1CCC(=O)N1` (centres undefined), the “activity change, negative = inhibition” value was inactive: -11.7%. In the case of `Cc1nonc1C(=O)N1CCCC(Nc2ccc(C(C)C)cc2)C1` (centres undefined), the Potency was inconclusive: 18.5 µM [inhibitor, single point]. With `CC(C)Oc1cc(-n2c(=S)[nH]c3ccccc3c2=O)c(Cl)cc1Cl` the Potency was active: 4.65 µM. In the case of `CC1=C(C(=O)N2CCN(c3cc(C)ccc3C)CC2)C2(CCCCC2)OC1=O`, the Potency was inconclusive: 14.7 µM [inhibitor, partial curve]. In the case of `CC(C)(C)c1ccc(/C=C2\SC(=O)N(CCNC(=O)c3cccc(S(=O)(=O)N4CCOCC4)c3)C2=O)cc1`, the “activity change, negative = inhibition” value was inactive: -48.9%. For `CCCC[C@]12Cc3cc(OC)c(OC)cc3C(O1)c1c(cc(-c3ccccc3)oc1=O)O2`, the Potency was active: 1.51 µM. With `COc1ccc(/C=N/NC(=O)C(C)Sc2ccccn2)cc1[N+](=O)[O-]` (centres undefined) the Potency was inconclusive: 13.1 µM [inhibitor, single point]. In the case of `COc1c(C)cc(C(=O)C2CCCN(C(=O)c3cc(C)on3)C2)cc1C` (centres undefined), the Potency was inconclusive: 10.4 µM [inhibitor, single point]. For `Cc1cccc(N(Cc2ccccc2)C(=O)c2ccc(S(C)(=O)=O)cc2)c1`, the Potency was inconclusive: 18.5 µM [inhibitor, single point]. For `O=C(Nc1nccs1)C1CCCCN1S(=O)(=O)c1ccccc1` (centres undefined), the Potency was inconclusive: 10.4 µM [inhibitor, single point]. With `C=CCOc1ccccc1CNCc1ccc(F)cc1` the Potency was active: 2.33 µM. In the case of `C[n+]1cc2c3c(ccc2c2ccc4cc5c(cc4c21)OCO5)OCO3`, the “activity change, negative = inhibition” value was inactive: 104%. In the case of `Cc1cc(Cl)ccc1N(CC(=O)NCCSCc1ccco1)S(C)(=O)=O`, the “activity change, negative = inhibition” value was inactive: 11.8%. In the case of `COc1cnc(-c2ccccc2)nc1Oc1ccccc1C`, the Potency was inconclusive: 3.29 µM [inhibitor, partial curve, poor fit]. In the case of `COc1ccc(OC)c(C(=O)CCCC(=O)c2cc(OC)ccc2OC)c1`, the Potency was inconclusive: 14.7 µM [inhibitor, partial curve]. In the case of `COCCNC(=O)CS(=O)Cc1nc(-c2ccc(Cl)cc2)oc1C` (centres undefined), the “activity change, negative = inhibition” value was inactive: 3.48%. For `O=c1nc(/C=C/c2cccn2-c2ccc([N+](=O)[O-])cc2)cc(C(F)(F)F)[nH]1`, the Potency was inconclusive: 18.5 µM [inhibitor, single point]. For `O=C(Nc1cccc(Cl)c1)c1cc2c(=O)n3ccccc3nc2s1`, the Potency was inconclusive: 8.28 µM [inhibitor, partial curve, poor fit]. In the case of `CN1c2ccccc2C(NCCCCCCC(=O)O)c2ccc(Cl)cc2S1(=O)=O` (centres undefined), the Potency was inconclusive: 6.75 µM [inhibitor, partial curve]. With `CCCCOC(=O)c1ccc(NC(=S)NC(=O)c2ccco2)cc1` the Potency was active: 11.7 µM. For `CC(=O)N1CCN(CC(=O)Nc2ccccc2Sc2ccc(Cl)cc2)CC1`, the Potency was inconclusive: 11.7 µM [inhibitor, single point]. For `CN(C(=O)COC(=O)CCCc1c[nH]c2ccccc12)c1c(N)n(Cc2ccccc2)c(=O)[nH]c1=O`, the “activity change, negative = inhibition” value was inactive: 2.5%. For `COc1ccc(/C=N/Nc2nc(Nc3ccccc3)nc(N3CCCCC3)n2)cc1OC`, the Potency was inconclusive: 0.928 µM [inhibitor, full curve, poor fit]. For `Cc1cccc(NS(=O)(=O)c2cc(C(=O)N3CCc4ccccc4C3)ccc2Cl)c1C`, the Potency was inconclusive: 9.28 µM [inhibitor, single point]. In the case of `Cc1ccc(S(=O)(=O)C(C#N)c2nc3ccccc3nc2N2CCCC2)cc1C` (centres undefined), the Potency was inconclusive: 0.657 µM [inhibitor, full curve, poor fit]. With `N#Cc1cc(C#N)c(N2CCN(c3ccccn3)CC2)nc1N` the “activity change, negative = inhibition” value was inactive: 97.8%. With `Cc1onc(-c2ccccc2)c1C(=O)NC(=S)NNC(=O)c1ccccc1O` the Potency was inconclusive: 11.7 µM [inhibitor, partial curve, poor fit]. For `CC1CCC2C(=O)N(c3ccc(Cc4ccncc4)cc3)C(=O)C2C1` (centres undefined), the Potency was inconclusive: 18.5 µM [inhibitor, single point]. For `Cc1nc(NC(=O)c2ccccc2)sc1-c1csc(Nc2ccc(F)cc2)n1`, the Potency was active: 3.7 µM. For `CCOCCCn1cc(C(=O)c2cc(Br)ccc2O)cc(C#N)c1=O`, the Potency was inconclusive: 10.4 µM [inhibitor, partial curve, poor fit]. In the case of `O=C(O)Cn1c(O)c(C=Nc2ccccc2)sc1=S`, the Potency was inconclusive: 0.0026 µM [inhibitor, full curve, poor fit]. With `CCOc1ccc(C(=O)NCCN2CCCCC2)c(OCC)c1` the “activity change, negative = inhibition” value was inactive: 89%. For `O=C(CCCCCn1c(=S)[nH]c2ccsc2c1=O)NC1CCCCC1`, the Potency was active: 13.1 µM. With `COc1cccc(CNC(=O)CSc2ccc(-c3ccccn3)nn2)c1` the “activity change, negative = inhibition” value was inactive: 0.823%. In the case of `CCc1ccc(-c2cc(C(=O)NCCCn3ccnc3)c3ccccc3n2)s1`, the Potency was inconclusive: 11.7 µM [inhibitor, single point]. For `CSc1cc(C)c(OCC(=O)Nc2c(C)nn(C)c2C)c(C)c1`, the Potency was inconclusive: 13.1 µM [inhibitor, partial curve, poor fit]. For `CCc1cccc(NC(=O)C2CC2c2ccccc2)c1` (centres undefined), the Potency was inconclusive: 18.5 µM [inhibitor, single point]. In the case of `CCOc1ccccc1NC(=O)C1CCC(CNc2c(N3CCOCC3)c(=O)c2=O)CC1` (centres undefined), the “activity change, negative = inhibition” value was inactive: -10.4%. With `COc1ccc2oc(C(=O)Nc3cccc(S(=O)(=O)N4CCOCC4)c3)c(C)c2c1` the “activity change, negative = inhibition” value was inactive: 0%. For `O=C(N/N=C/C=C/c1ccco1)c1cccs1`, the Potency was inconclusive: 3.7 µM [inhibitor, single point]. With `Brc1ccsc1-c1csc(-c2ccncc2)n1` the Potency was inconclusive: 18.5 µM [inhibitor, single point]. For `CCCn1c(SCC(=O)Nc2cccc(C)n2)nc2c1c(=O)n(C)c(=O)n2C`, the Potency was inconclusive: 1.65 µM [inhibitor, full curve, poor fit]. In the case of `CCOc1ccc(NC(=O)c2ccc(-n3cccn3)nc2)cc1`, the “activity change, negative = inhibition” value was inactive: 103%. With `Cc1nnsc1C(=O)N1CCC(C(=O)c2ccccc2)CC1` the “activity change, negative = inhibition” value was inactive: 34.8%.

From PubChem BioAssay AID504834 (National Center for Advancing Translational Sciences (NCATS), 2011)
% is set by controls: 0 for no effect and ±100 for the full control effect; potency is the fitted concentration of half-maximal effect.
